Our source for the binding values is publication PMC11183095.

By UniProt entry, the sequences of proteins in these tests, tags left out.
UniProt P18669: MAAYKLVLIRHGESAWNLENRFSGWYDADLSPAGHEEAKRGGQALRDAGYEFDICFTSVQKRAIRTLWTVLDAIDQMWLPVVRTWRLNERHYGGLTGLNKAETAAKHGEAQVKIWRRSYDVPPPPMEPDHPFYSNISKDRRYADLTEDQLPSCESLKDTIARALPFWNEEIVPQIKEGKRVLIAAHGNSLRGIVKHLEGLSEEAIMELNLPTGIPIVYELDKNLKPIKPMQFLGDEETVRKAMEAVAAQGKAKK

These are yes or no findings as the source states them, for the method shown. Binding seen in cells or lysates may run through a third protein.

The assay concerns the target Phosphoglycerate mutase 1 (PGAM1), endogenous (human (endogenous in A549)) (UniProt P18669). Put plainly: co-IP; anti-PGAM1 immunoprecipitation from whole-cell lysates of A549 (also H1299, MCF-7, MDA-MB-231, AGS, Jurkat tumour cells; with or without EGF), western blot; IgG as negative control. (A western blot detects proteins with antibodies after separation by electrophoresis.)

B1: Phosphoenolpyruvate carboxykinase PCK2, endogenous (enzyme, UniProt Q16822 33-640)
chain: LSGDLGQLPTGIRDFVEHSARLCQPEGIHICDGTEAENTATLTLLEQQGLIRKLPKYNNCWLARTDPKDVARVESKTVIVTPSQRDTVPLPPGGARGQLGNWMSPADFQRAVDERFPGCMQGRTMYVLPFSMGPVGSPLSRIGVQLTDSAYVVASMRIMTRLGTPVLQALGDGDFVKCLHSVGQPLTGQGEPVSQWPCNPEKTLIGHVPDQREIISFGSGYGGNSLLGKKCFALRIASRLARDEGWLAEHMLILGITSPAGKKRYVAAAFPSACGKTNLAMMRPALPGWKVECVGDDIAWMRFDSEGRLRAINPENGFFGVAPGTSATTNPNAMATIQSNTIFTNVAETSDGGVYWEGIDQPLPPGVTVTSWLGKPWKPGDKEPCAHPNSRFCAPARQCPIMDPAWEAPEGVPIDAIIFGGRRPKGVPLVYEAFNWRHGVFVGSAMRSESTAAAEHKGKIIMHDPFAMRPFFGYNFGHYLEHWLSMEGRKGAQLPRIFHVNWFRRDEAGHFLWPGFGENARVLDWICRRLEGEDSARETPIGLVPKEGALDLSGLRAIDTTQLFSLPKDFWEQEVRDIRSYLTEQVNQDLPKEVLAELEALERRVHKM
Turning to B1, the binding result is reported as “no binding”.
